Record: PubChem BioAssay AID743121 (NCATS, 2013)
Screen: 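Partners whose loss is lethal together with topoisomerase I blockade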 (primary screen). Cells: MDA-MB-231 cells, a human breast cancer line. Reagent: single siRNA against human genes, 20 nM siRNA (0.8 pmol per well). Timing: 120 h (drug added 48 h after transfection, read 72 h later). Treatment: camptothecin 20 nM (about EC30) for 72 h; vehicle 0.1% DMSO in parallel plates. Measurement: 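Cell viability by ATP luminescence (CellTiter-Glo) as % of non-targeting siRNA wells, and the log2 ratio of viability without drug over viability with camptothecin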. Direction: log2 vehicle/camptothecin viability: higher = stronger sensitisation to camptothecin; viability with camptothecin and viability without drug: higher = more viable cells. Rule for the call: 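Each gene scored by redundant siRNA activity (RSA) over its individual siRNA ratios; a gene is called active at p < 0.001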.
Shown is one part, drawn at random, of about 26,000 reagents tested. 167 of them (0.63%) were called active. 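Calls are per gene from RSA p-values that are not deposited; an individual active-marked siRNA can sensitise only weakly.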 Reagents against one gene are numbered here. No sequences are given here.

Gene	siRNA no.	log2 vehicle/camptothecin viability	viability with camptothecin (% of control)	viability without drug (% of control)	Call
BCKDK	1	-0.509	85	59.7	inactive
BCKDK	2	-0.0849	56.1	52.9	inactive
BCKDK	3	-0.195	84.2	73.6	inactive
BCKDK	4	-0.0567	75.2	72.3	inactive
DUSP13B	1	-0.18	78.9	69.6	inactive
DUSP13B	2	-0.533	64.2	44.3	inactive
DUSP13B	3	-0.195	66.1	57.8	inactive
DUSP13B	4	-0.423	48.6	36.2	inactive
GRB7	1	-0.606	104	68.2	inactive
GRB7	2	-0.415	52.4	39.3	inactive
GRB7	3	-0.253	84	70.5	inactive
CEBPA	1	-0.783	50.4	29.3	inactive
CEBPA	2	0.345	54.3	69	inactive
CEBPA	3	-0.624	78.4	50.9	inactive
CEBPA	4	-0.146	111	101	inactive
CCRL2	1	-0.463	103	74.9	inactive
CCRL2	2	-0.307	131	106	inactive
CCRL2	3	-0.306	50.2	40.6	inactive
CCRL2	4	0.0999	82.3	88.2	inactive
NR2C2AP	1	-0.51	96.5	67.8	inactive
NR2C2AP	2	-0.555	85.7	58.3	inactive
NR2C2AP	3	-0.272	136	113	inactive
NR2C2AP	4	0.172	54.1	60.9	inactive
NPBWR1	1	-0.258	111	93.1	inactive
NPBWR1	2	-0.215	17.6	15.1	inactive
NPBWR1	3	0.141	70	77.2	inactive
GPX3	1	-0.249	75.2	63.3	inactive
GPX3	2	-0.0925	33.5	31.4	inactive
GPX3	3	0.557	60.4	88.9	inactive
GPX3	4	-0.423	83.8	62.5	inactive
CUL2	1	0.155	21.1	23.5	inactive
CUL2	2	-0.656	96.7	61.4	inactive
CUL2	3	-0.0684	88.6	84.5	inactive
CUL2	4	-0.149	63.1	56.9	inactive
EPB42	1	-0.237	64.7	54.9	inactive
EPB42	2	-0.218	99.6	85.6	inactive
EPB42	3	-0.465	73.4	53.2	inactive
EPB42	4	-0.271	113	93.9	inactive
APLP2	1	-0.112	36.2	33.5	inactive
APLP2	2	0.0194	92.5	93.7	inactive
APLP2	3	0.451	54.4	74.4	inactive
ACP3	1	-0.222	88.8	76.1	inactive
ACP3	2	-0.133	89.7	81.8	inactive
ACP3	3	-0.509	98.3	69.1	inactive
ACP3	4	-0.192	76.8	67.2	inactive
LDHA	1	-0.313	114	91.5	inactive
LDHA	2	0.382	35.3	46	inactive
LDHA	3	-0.0735	106	101	inactive
LDHA	4	-0.215	62.8	54.1	inactive
PTGER3	1	-0.0181	97.8	96.6	inactive
PTGER3	2	0.755	68.9	116	inactive
PTGER3	3	-0.408	57.3	43.1	inactive
PTGER3	4	0.034	102	105	inactive
JAK1	1	-0.106	71.1	66.1	inactive
JAK1	2	-0.396	65.4	49.7	inactive
JAK1	3	-0.193	62.1	54.3	inactive
JAK1	4	-0.259	79.9	66.8	inactive
INHA	1	-0.45	63.6	46.5	inactive
INHA	2	-0.187	120	106	inactive
INHA	3	0.654	33.6	52.8	inactive
INHA	4	-0.316	55.7	44.8	inactive
PTGS2	1	-0.26	113	94.2	inactive
PTGS2	2	-0.496	81.1	57.5	inactive
PTGS2	3	0.253	34.6	41.2	inactive
CACNG7	1	-0.361	72	56.1	inactive
CACNG7	2	0.0696	51.9	54.5	inactive
CACNG7	3	-0.152	96.6	87	inactive
CACNG7	4	-0.528	74.2	51.4	inactive
IQGAP2	1	-0.218	70.4	60.5	inactive
IQGAP2	2	-0.201	68.5	59.6	inactive
IQGAP2	3	0.0277	61.3	62.5	inactive
IQGAP2	4	-0.145	82.2	74.3	inactive
TUBB7P	1	0.453	47	64.3	inactive
TUBB7P	2	-0.0952	96.5	90.4	inactive
TUBB7P	3	0.146	73.5	81.4	inactive
TUBB7P	4	-0.49	78.1	55.6	inactive
TNXA	1	-0.0912	79.9	75	inactive
TNXA	2	-0.0772	89.5	84.8	inactive
TNXA	3	-0.458	71.3	51.9	inactive
TNXA	4	-0.433	56.3	41.7	inactive
CAPN13	1	0.163	88.4	98.9	inactive
CAPN13	2	-0.49	86.2	61.4	inactive
CAPN13	3	-0.171	90.1	80	inactive
CAPN13	4	0.0939	91.8	98	inactive
MAP3K6	1	-0.229	61.2	52.2	inactive
MAP3K6	2	-0.0533	74.4	71.7	inactive
MAP3K6	3	0.205	39.6	45.6	inactive
MAP3K6	4	-0.116	104	95.7	inactive

Targets listed so far whose target name starts with L or l:
Gene	siRNA no.	log2 vehicle/camptothecin viability	viability with camptothecin (% of control)	viability without drug (% of control)	Call
LDHA	1	-0.313	114	91.5	inactive
LDHA	2	0.382	35.3	46	inactive
LDHA	3	-0.0735	106	101	inactive
LDHA	4	-0.215	62.8	54.1	inactive
